The supplement of paper PMC6078165

Tested on: BT20
Assay: relative JC-1 red fluorescence (viability) vs pre-drug, coculture with fibroblast (fraction); higher = more viable cancer cells
Method: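 JC-1 labelled TNBC cells cocultured 1:1 (1,500 cells each) with CellTrace Violet stained primary or stromal fibroblasts in 384-well plates in FluoroBrite medium, treated with one of 42 anticancer drugs at 0.1, 1, 10 or 100 uM. JC-1 red fluorescence (mitochondrial integrity in cancer cells only) was read by plate reader every 8 h for 72 h. Values are normalised to each well's pre-drug value. The stock of one drug was tenfold lower, so its dose labels may be too high.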

Cc1c2oc3c(C)ccc(C(=O)N[C@@H]4C(=O)N[C@H](C(C)C)C(=O)N5CCC[C@H]5C(=O)N(C)CC(=O)N(C)[C@@H](C(C)C)C(=O)O[C@@H]4C)c3nc-2c(C(=O)N[C@@H]2C(=O)N[C@H](C(C)C)C(=O)N3CCC[C@H]3C(=O)N(C)CC(=O)N(C)[C@@H](C(C)C)C(=O)O[C@@H]2C)c(N)c1=O [Dactinomycin] (I: T[dV]P[Sar][NMeV] / II: T[dV]P[Sar][NMeV]; ester I:1-I:C, II:1-II:C; linker I:N-II:N via Actinocin(9to1))
relative JC-1 red fluorescence
Details	8 h	16 h	24 h	32 h	40 h	48 h	56 h	64 h	72 h
0.1 µM, coculture fibroblast: C12385	0.884	0.855	0.85	0.797	0.741	0.734	0.724	0.721	0.717
0.1 µM, coculture fibroblast: H6013	0.922	0.907	0.924	0.882	0.868	0.875	0.772	0.778	0.855
0.1 µM, coculture fibroblast: H6019	0.8748	0.814	0.814	0.775	0.746	0.74	0.722	0.715	0.708
0.1 µM, coculture fibroblast: H6076	0.847	0.9335	0.8283	0.77681	0.7392	0.716	0.728	0.724	0.711
0.1 µM, coculture fibroblast: H6231	0.83	0.9265	0.855	0.807	0.771	0.724	0.696	0.685	0.674
0.1 µM, coculture fibroblast: HADF	0.9684	0.932	0.911	0.85	0.836	0.802	0.821	0.832	0.833
0.1 µM, coculture fibroblast: HCFa	0.906	0.87	0.862	0.82	0.804	0.808	0.836	0.864	0.844
0.1 µM, coculture fibroblast: HCPF	0.841	0.951	0.875	0.823	0.7868	0.7484	0.7188	0.734	0.714
0.1 µM, coculture fibroblast: HHSteC	0.9047	0.886	0.886	0.829	0.811	0.798	0.815	0.819	0.803
0.1 µM, coculture fibroblast: HMF	0.852	0.887	0.7639	0.719	0.666	0.607	0.55	0.513	0.483
0.1 µM, coculture fibroblast: HPFa	0.917	0.904	0.904	0.824	0.8195	0.809	0.809	0.823	0.82
0.1 µM, coculture fibroblast: HUF	0.894	0.863	0.859	0.809	0.783	0.774	0.773	0.78	0.776
0.1 µM, coculture fibroblast: Hs5	0.886	0.91827	0.877	0.846	0.812	0.789	0.777	0.757	0.759
0.1 µM, coculture fibroblast: Hs27A	0.913	0.899	0.84	0.853	0.834	0.879	0.819	0.829	0.903
0.1 µM, coculture fibroblast: Hs343T	0.738	0.903	0.7737	0.701	0.6456	0.588	0.529	0.513	0.477
0.1 µM, coculture fibroblast: WS1	0.864	0.82145	0.803	0.751	0.702	0.684	0.673	0.652	0.65
1 µM, coculture fibroblast: C12385	0.843	0.806	0.806	0.741	0.673	0.66	0.641	0.644	0.648
1 µM, coculture fibroblast: H6013	0.927	0.892	0.889	0.8	0.76	0.722	0.731	0.716	0.706
1 µM, coculture fibroblast: H6019	0.834	0.75	0.71	0.646	0.6	0.604	0.588	0.584	0.586
1 µM, coculture fibroblast: H6076	0.881	0.892	0.774	0.728	0.707	0.687	0.68	0.686	0.672
1 µM, coculture fibroblast: H6231	0.781	0.8717	0.764	0.69	0.609	0.549	0.5225	0.483	0.474
1 µM, coculture fibroblast: HADF	0.9561	0.896	0.863	0.767	0.735	0.706	0.713	0.708	0.698
1 µM, coculture fibroblast: HCFa	0.919	0.838	0.763	0.685	0.651	0.625	0.625	0.624	0.606
1 µM, coculture fibroblast: HCPF	0.789	0.933	0.846	0.783	0.743	0.693	0.63	0.607	0.553
1 µM, coculture fibroblast: HHSteC	0.9264	0.9	0.8867	0.759	0.719	0.674	0.673	0.653	0.629
1 µM, coculture fibroblast: HMF	0.899	0.8686	0.734	0.656	0.608	0.559	0.531	0.502	0.477
1 µM, coculture fibroblast: HPFa	0.901	0.843	0.833	0.738	0.727	0.701	0.716	0.713	0.699
1 µM, coculture fibroblast: HUF	0.881	0.781	0.729	0.631	0.574	0.536	0.531	0.515	0.501
1 µM, coculture fibroblast: Hs5	0.868	0.875	0.764	0.708	0.679	0.65	0.638	0.621	0.609
1 µM, coculture fibroblast: Hs27A	0.874	0.828	0.773	0.789	0.829	0.822	0.734	0.68	0.795
1 µM, coculture fibroblast: Hs343T	0.902	0.878	0.773	0.707	0.666	0.615	0.571	0.555	0.533
1 µM, coculture fibroblast: WS1	0.838	0.788	0.739	0.661	0.6182	0.603	0.6016	0.5984	0.595

Values are relative to the signal before dosing, not to a vehicle control; the signal also falls without drug.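 Fibroblast labels denote human fibroblasts, mainly primary ones from uterus (C12385, HUF), lung (H6013), bone (Hs27A), adrenal (HADF) and skin (WS1), plus mammary HMF and breast cancer-associated Hs343T. Cancer cells are basal-like or mesenchymal-like triple-negative breast cancer lines. A hit is a response shift exceeding 3x replicate standard deviation. The tissue of the other fibroblasts is not given here.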 Numbered stars: 1 amine (or outer) side, 2 acyl side, 3 side chain; on linkers, the order of the positions; unused ones are H or OH. Bridge positions count the residues as written; N and C are the ends. Square brackets hold non-standard residues; d marks the D form. Peptide text beside a SMILES is read from it. I, II: the chains in the order shown. Actinocin(9to1) = Cc1c2oc3c(C)ccc(C(=O)[*:1])c3nc-2c(C(=O)[*:2])c(N)c1=O; NMeV = CN[C@H](C(=O)O)C(C)C; Sar = CNCC(=O)O
